PubChem BioAssay AID1259425, University of Nebraska Medical Center | 2018

Screen: 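Find knockdowns that reproduce the gene expression pattern seen when KSR1 is lost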 (primary screen)
Cells: HCT116 human colon cancer cells
Reagents: siRNA pool against human genes, 50 nM siRNA
Read-out: 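After 50 nM siRNA pool, branched-DNA assay measures six marker transcripts per well, minus blank, normalised to the geometric mean of two housekeeping transcripts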
Scale: BNIP3L mRNA: higher = more BNIP3L transcript after knockdown; NDRG1 mRNA: higher = more NDRG1 transcript after knockdown
Here is one part, drawn at random, of about 14,000 deposited reagents. Further read-outs or replicates are left out here. The record does not give: the time to read-out.

The first 2 records as a preview:
TFF3 → BNIP3L mRNA, set 1: 0.0781; NDRG1 mRNA, set 1: 0.156
HSPBP1 → BNIP3L mRNA, set 1: 0.0754; NDRG1 mRNA, set 1: 0.519

Results, repeating the preview:
TFF3 → BNIP3L mRNA, set 1: 0.0781; NDRG1 mRNA, set 1: 0.156
HSPBP1 → BNIP3L mRNA, set 1: 0.0754; NDRG1 mRNA, set 1: 0.519
AAAS → BNIP3L mRNA, set 1: 0.136; NDRG1 mRNA, set 1: 0.184
CRY2 → BNIP3L mRNA, set 1: 0.0349; NDRG1 mRNA, set 1: 0.255
TIMM13 → BNIP3L mRNA, set 1: 0.318; NDRG1 mRNA, set 1: 0.388
CDC14A → BNIP3L mRNA, set 1: 0.0863; NDRG1 mRNA, set 1: 0.176
ZKSCAN1 → BNIP3L mRNA, set 1: 0.0828; NDRG1 mRNA, set 1: 0.296
TNFRSF13B → BNIP3L mRNA, set 1: 0.0354; NDRG1 mRNA, set 1: 0.0877
TOP1 → BNIP3L mRNA, set 1: 0.0878; NDRG1 mRNA, set 1: 0.0829
FLRT1 → BNIP3L mRNA, set 1: 0.0804; NDRG1 mRNA, set 1: 0.307
PKM → BNIP3L mRNA, set 1: 0.0957; NDRG1 mRNA, set 1: 0.136
MRPL15 → BNIP3L mRNA, set 1: 0.147; NDRG1 mRNA, set 1: 0.345
LALBA → BNIP3L mRNA, set 1: 0.0975; NDRG1 mRNA, set 1: 0.0843
NIPAL2 → BNIP3L mRNA, set 1: 0.142; NDRG1 mRNA, set 1: 0.297
AMY2B → BNIP3L mRNA, set 1: 0.105; NDRG1 mRNA, set 1: 0.272
SLITRK5 → BNIP3L mRNA, set 1: 0.109; NDRG1 mRNA, set 1: 0.253
H3C1 → BNIP3L mRNA, set 1: 0.036; NDRG1 mRNA, set 1: 0.614
OPN5 → BNIP3L mRNA, set 1: 0.134; NDRG1 mRNA, set 1: 0.208
DUX3 → BNIP3L mRNA, set 1: 0.0489; NDRG1 mRNA, set 1: 0.0464
CCND2 → BNIP3L mRNA, set 1: 0.142; NDRG1 mRNA, set 1: 0.468
CD200 → BNIP3L mRNA, set 1: 0.0504; NDRG1 mRNA, set 1: 0.0587
SEL1L2 → BNIP3L mRNA, set 1: 0.156; NDRG1 mRNA, set 1: 1.16
REEP4 → BNIP3L mRNA, set 1: 0.0507; NDRG1 mRNA, set 1: 0.246
CTIF → BNIP3L mRNA, set 1: 0.209; NDRG1 mRNA, set 1: 1.83
LIPF → BNIP3L mRNA, set 1: 0.0699; NDRG1 mRNA, set 1: 0.0774
MKS1 → BNIP3L mRNA, set 1: 0.13; NDRG1 mRNA, set 1: 0.305
TRIM32 → BNIP3L mRNA, set 1: 0.162; NDRG1 mRNA, set 1: 0.165
ANKRD26 → BNIP3L mRNA, set 1: 0.152; NDRG1 mRNA, set 1: 0.0953
